Data taken from PMC11698047.
Results are given in words; binding and its absence hold for the method and conditions named. For some assays here: Sequences can lack the tags named with a protein.

What was measured:
[1] = target: Drosophila melanogaster Canoe RA1 domain (amino acids 1-137, including the αN helix) (Drosophila melanogaster) (UniProt Q24279); test: SEC-MALS; 100 µl of individual proteins (200 µM) or RA domain-Rap1G12V-GMPPNP complexes (200 µM complex) on Superdex 200, 0.5 ml/min, buffer C (25 mM HEPES-NaOH pH 7.5, 100 mM NaCl, 5 mM MgCl2, 0.1% β-ME) with 0.2 g/l sodium azide; in duplicate; both purified
[2] = target: Drosophila melanogaster Canoe RA2 domain (amino acids 222-350, including the αN helix), with His-tag (Drosophila melanogaster) (UniProt Q24279); test: as above

Row | Binder | binding [1] | binding [2]
1 | Drosophila melanogaster Canoe RA1 domain (amino acids 1-137, including the αN helix) (domain or fragment, UniProt Q24279 1-137) MSHDKKMLDREAVRSVIQQWNANRLDLFALSEPDENLLFHGVMRFYFQDAGQKVATKCIRVASDATVTDVIDTLIEKFRPDMRMLSVPNYALYEVHANGEERRLNADEKPLLVQLNWHIDDREGRFLLKNIDQKTTP | no binding (tested: 200 µM) | –
2 | Drosophila melanogaster Canoe RA2 domain (amino acids 222-350, including the αN helix), with His-tag (domain or fragment, UniProt Q24279 222-350) TRSISNPEAVMRRRRQQKLEKKLQQFRSRDGGPDTGGTLKIYGESLCQDVPYKTLLLSIRDCAQAVVREMLTKYGLEKADPLHYCLVQVNSDGTEYILDDDECPLSILMNHPTSRGSIMFHVRRRPADS | – | no binding (tested: 200 µM)
